Measurements taken from publication PMC8466238, “Development of High Affinity Calcitonin Analog Fragments Targeting Extracellular Domains of Calcitonin Family Receptors” (Biomolecules, 2021).
Results are given in words; binding and its absence hold for the method and conditions named. Some entries that bind do so weakly or less than the wild type. Tags and fused reporters may be left off the sequences shown.

Molecular target: T1, FITC-labeled AC413(6–25)
T1 sequence (peptide, FITC-(Ahx) (aminohexanoic acid) on the N-terminus; C-terminal amide): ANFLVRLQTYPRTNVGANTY
Experiment: fluorescence polarisation; binding of AC413 to purified RAMP3-CTR ECD fusion protein compared to CTR ECD alone (Figure S1D; details not shown); both purified

B1: RAMP3-CTR ECD fusion protein (hRAMP3.25–112-(GSA)3-hCTR.34–141-H6) (receptor, human)
chain: AGGCNETGMLERLPLCGKAFADMMGKVDVWKWCNLSEFIVYYESFTNCTEMEANVVGCYWPNPLAQGFITGIHRQFFSNCTVDRVHLEGSAGSAGSAIEPKPFLYVVGRKKMMDAQYKCYDRMQQLPAYQGEGPYCNRTWDGWLCWDDTPAGVLSYQFCPDYFPDFDPSEKVTKYCDEKGVWFKHPENNRTWSNYTMCNAFTPEK
notes: human receptor activity-modifying protein 3 (RAMP3), extracellular domain, residues 25-112; linker, printed as (GSA)3; human calcitonin receptor (CTR), extracellular domain, residues 34-141; Secreted from a pHLsec-based vector; also called AMY receptor 3 ECD; RAMP3 ECD-CTR ECD fusion protein; source: HEK293S GnTI-, transiently transfected (PEI), secreted to cell culture media, purified (IMAC, SEC)
For B1, the binding was “binds”.
